Assay results as given in paper doi:10.1101/2021.03.23.436655.
No constants are given. Whether binding was seen depends on the method and setting. Some entries that bind do so weakly or less than the wild type. Sequences can lack the tags named with a protein.

T1: eIF4E-1, GAL4 DNA-binding domain fusion (Drosophila melanogaster) (UniProt P48598)
T1 sequence: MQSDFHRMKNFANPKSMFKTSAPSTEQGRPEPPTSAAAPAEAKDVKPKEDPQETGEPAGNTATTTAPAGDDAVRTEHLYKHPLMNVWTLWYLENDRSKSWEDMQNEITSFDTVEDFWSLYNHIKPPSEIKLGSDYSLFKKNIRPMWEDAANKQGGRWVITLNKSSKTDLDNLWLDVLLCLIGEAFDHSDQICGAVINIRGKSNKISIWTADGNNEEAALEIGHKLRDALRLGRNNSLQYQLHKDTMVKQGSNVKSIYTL

T2: eIF4E-1 W117A, GAL4 DNA-binding domain fusion (Drosophila melanogaster) (UniProt P48598)
T2 sequence: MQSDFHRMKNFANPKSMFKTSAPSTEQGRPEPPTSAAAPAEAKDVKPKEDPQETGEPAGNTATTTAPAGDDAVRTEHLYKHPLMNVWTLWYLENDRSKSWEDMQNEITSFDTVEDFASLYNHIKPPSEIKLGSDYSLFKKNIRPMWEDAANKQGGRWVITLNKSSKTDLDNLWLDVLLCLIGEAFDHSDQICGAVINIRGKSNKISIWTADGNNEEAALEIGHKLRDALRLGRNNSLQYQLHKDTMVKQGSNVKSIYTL


Experiments:
[1] = target: T1, eIF4E-1, GAL4 DNA-binding domain fusion (Drosophila melanogaster); assay: two-hybrid
[2] = target: T2, eIF4E-1 W117A, GAL4 DNA-binding domain fusion (Drosophila melanogaster); assay: two-hybrid

Row | binding [1] | binding [2] | Binder
1 | binds |  | Me31B 366-459 (D2 domain fragment), GAL4 activation domain fusion (domain or fragment, UniProt P23128 366-459) VVINFDFPRMAETYLHRIGRSGRFGHLGIAINLITYEDRFDLHRIEKELGTEIKPIPKVIDPALYVANVGASVGDTCNNSDLNNSANEEGNVSK
2 | binds | no binding | Maternal expression at 31B (Me31B), GAL4 activation domain fusion (protein, UniProt P23128 1-459) MMTEKLNSGHTNLTSKGIINDLQIAGNTSDDMGWKSKLKLPPKDNRFKTTDVTDTRGNEFEEFCLKRELLMGIFEKGWERPSPIQEAAIPIALSGKDVLARAKNGTGKTGAYCIPVLEQIDPTKDYIQALVMVPTRELALQTSQICIELAKHLDIRVMVTTGGTILKDDILRIYQKVQLIIATPGRILDLMDKKVADMSHCRILVLDEADKLLSLDFQGMLDHVILKLPKDPQILLFSATFPLTVKNFMEKHLREPYEINLMEELTLKGVTQYYAFVQERQKVHCLNTLFSKLQINQSIIFCNSTQRVELLAKKITELGYCCYYIHAKMAQAHRNRVFHDFRQGLCRNLVCSDLFTRGIDVQAVNVVINFDFPRMAETYLHRIGRSGRFGHLGIAINLITYEDRFDLHRIEKELGTEIKPIPKVIDPALYVANVGASVGDTCNNSDLNNSANEEGNVSK
3 | no binding |  | Me31B Y401A, GAL4 activation domain fusion (protein, UniProt P23128 1-459) MMTEKLNSGHTNLTSKGIINDLQIAGNTSDDMGWKSKLKLPPKDNRFKTTDVTDTRGNEFEEFCLKRELLMGIFEKGWERPSPIQEAAIPIALSGKDVLARAKNGTGKTGAYCIPVLEQIDPTKDYIQALVMVPTRELALQTSQICIELAKHLDIRVMVTTGGTILKDDILRIYQKVQLIIATPGRILDLMDKKVADMSHCRILVLDEADKLLSLDFQGMLDHVILKLPKDPQILLFSATFPLTVKNFMEKHLREPYEINLMEELTLKGVTQYYAFVQERQKVHCLNTLFSKLQINQSIIFCNSTQRVELLAKKITELGYCCYYIHAKMAQAHRNRVFHDFRQGLCRNLVCSDLFTRGIDVQAVNVVINFDFPRMAETYLHRIGRSGRFGHLGIAINLITAEDRFDLHRIEKELGTEIKPIPKVIDPALYVANVGASVGDTCNNSDLNNSANEEGNVSK
